Record: PubChem BioAssay AID1224826 (NIAID, 2016)
Here is one part, drawn at random, of about 17,000 reagents tested. Of all reagents, about 1,110 (6.6%) are marked active. 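Active means lowered or raised reporter signal; replicate intensities are raw and not normalised per plate.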 The numbers tell different reagents against one gene apart. Further read-outs or replicates are left out here.

Test: 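Knock-downs that raise or lower Tnf reporter signal after endotoxin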 (primary screen)
System: RAW264.7 G9 macrophages from mouse bearing reporters for p65 (GFP) and the Tnf promoter (mCherry)
Reagent: siRNA pool against mouse genes, 100 nM
Timing: 16 h of LPS stimulation, after 2 days of siRNA transfection
Challenge: bacterial lipopolysaccharide (Salmonella minnesota R595), 10 ng/ml
Measurement: 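Nuclear mCherry signal of the Tnf promoter reporter measured by imaging after background removal, scaled to each plate median and turned into robust z-scores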
Reading the numbers: Tnf reporter robust z-score: higher = stronger Tnf promoter reporter signal after LPS; Tnf reporter intensity: higher = stronger Tnf promoter reporter signal
Hit rule: 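a well counts as active at a score of -1.3 or below (Tlr4 knock-down control median) or above 3 (raised signal); controls and wells holding fewer than 50 cells are excluded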
Meaning of the calls: active = Tnf reporter clearly lowered or raised; inactive = no clear change in Tnf reporter

target gene | reagent | Tnf reporter robust z-score | fewer than 50 cells in well | Tnf reporter intensity, replicate 1 | activity call
Gspt2 (G1 to S phase transition 2) | 1 | -0.33 | enough cells in well | 229 | inactive
Zdhhc6 (zinc finger, DHHC domain containing 6) | 1 | – | fewer than 50 cells per well; well left out of calls | 81 | inactive
Zfp944 (zinc finger protein 944) | 1 | – | fewer than 50 cells per well; well left out of calls | 177 | inactive
Or6c219 (olfactory receptor family 6 subfamily C member 219) | 1 | 1.15 | enough cells in well | 97.3 | inactive
Ptms (parathymosin) | 1 | 1.55 | enough cells in well | 241 | inactive
Zfp623 (zinc finger protein 623) | 1 | -0.37 | enough cells in well | 220 | inactive
Inpp5d (inositol polyphosphate-5-phosphatase D) | 1 | -1.25 | enough cells in well | 130 | inactive
Txnl4a (thioredoxin-like 4A) | 1 | -0.98 | enough cells in well | 51.4 | inactive
Txnl4a (thioredoxin-like 4A) | 2 | -1.57 | enough cells in well | 99.9 | active
Lratd1 (LRAT domain containing 1) | 1 | 1.84 | enough cells in well | 266 | inactive
Sfmbt1 (Scm-like with four mbt domains 1) | 1 | 1.42 | enough cells in well | 145 | inactive
Sfmbt1 (Scm-like with four mbt domains 1) | 2 | 1.14 | enough cells in well | 278 | inactive
Slc39a4 | 1 | 0.12 | enough cells in well | 210 | inactive
Pum3 (pumilio RNA-binding family member 3) | 1 | 0.08 | enough cells in well | 214 | inactive
1700030K09Rik (RIKEN cDNA 1700030K09 gene) | 1 | – | fewer than 50 cells per well; well left out of calls | 219 | inactive
Blcap (bladder cancer associated protein) | 1 | 0.89 | enough cells in well | 140 | inactive
Sap130 (Sin3A associated protein 130) | 1 | – | fewer than 50 cells per well; well left out of calls | 168 | inactive
Clba1 (clathrin binding box of aftiphilin containing 1) | 1 | 1.02 | enough cells in well | 296 | inactive
Txndc16 (thioredoxin domain containing 16) | 1 | -0.27 | enough cells in well | 131 | inactive
Samt4 (spermatogenesis associated multipass transmembrane protein 4) | 1 | 1.14 | enough cells in well | 291 | inactive
Scn4a (sodium channel, voltage-gated, type IV, alpha) | 1 | 0.23 | enough cells in well | 307 | inactive
Cdnf (cerebral dopamine neurotrophic factor) | 1 | -0.95 | enough cells in well | 124 | inactive
Or7g21 (olfactory receptor family 7 subfamily G member 21) | 1 | 1.07 | enough cells in well | 146 | inactive

Reagents above marked active, once more:
target gene | reagent | Tnf reporter robust z-score | fewer than 50 cells in well | Tnf reporter intensity, replicate 1 | activity call
Txnl4a (thioredoxin-like 4A) | 2 | -1.57 | enough cells in well | 99.9 | active

Continued.
target gene | reagent | Tnf reporter robust z-score | fewer than 50 cells in well | Tnf reporter intensity, replicate 1 | activity call
Pigw (phosphatidylinositol glycan anchor biosynthesis, class W) | 1 | 4.02 | enough cells in well | 375 | active
Apbb1ip | 1 | -0.25 | enough cells in well | 194 | inactive
Cela2a (chymotrypsin-like elastase family, member 2A) | 1 | -1.73 | enough cells in well | 77.9 | active
Pcdhga7 (protocadherin gamma subfamily A, 7) | 1 | 0.48 | enough cells in well | 172 | inactive
Cxcr1 (C-X-C motif chemokine receptor 1) | 1 | 0.69 | enough cells in well | 257 | inactive
Cacna1h (calcium channel, voltage-dependent, T type, alpha 1H subunit) | 1 | – | fewer than 50 cells per well; well left out of calls | 69.9 | inactive
Cited2 | 1 | 2.24 | enough cells in well | 288 | inactive
Sh3d19 (SH3 domain protein D19) | 1 | -0.68 | enough cells in well | 51.2 | inactive
Ppp1r13b (protein phosphatase 1, regulatory subunit 13B) | 1 | 0.34 | enough cells in well | 280 | inactive
Gkn1 (gastrokine 1) | 1 | -0.53 | enough cells in well | 193 | inactive
Ifnz (interferon zeta) | 1 | 1.08 | enough cells in well | 262 | inactive
Odf2l (outer dense fiber of sperm tails 2-like) | 1 | -0.94 | enough cells in well | 140 | inactive
Ky (kyphoscoliosis peptidase) | 1 | 1.16 | enough cells in well | 254 | inactive
Rbm10 (RNA binding motif protein 10) | 1 | -0.74 | enough cells in well | 79.3 | inactive
Or5bw2 (olfactory receptor family 5 subfamily BW member 2) | 1 | -1.03 | enough cells in well | 123 | inactive
Strc (stereocilin) | 1 | -0.25 | enough cells in well | 221 | inactive
Ddx55 (DEAD box helicase 55) | 1 | -1.19 | enough cells in well | 153 | inactive
Mical1 | 1 | -0.18 | enough cells in well | 178 | inactive
Ssh1 (slingshot protein phosphatase 1) | 1 | – | fewer than 50 cells per well; well left out of calls | 119 | inactive
Tmem14a (transmembrane protein 14A) | 1 | 0.31 | enough cells in well | 207 | inactive
Mis18bp1 (MIS18 binding protein 1) | 1 | -0.07 | enough cells in well | 113 | inactive
Fam25a (family with sequence similarity 25, member A) | 1 | – | fewer than 50 cells per well; well left out of calls | 42.8 | inactive
Ciao3 (cytosolic iron-sulfur assembly component 3) | 1 | -0.21 | enough cells in well | 221 | inactive
Ywhah | 1 | – | fewer than 50 cells per well; well left out of calls | 146 | inactive
Cdc42bpg (CDC42 binding protein kinase gamma) | 1 | 1.78 | enough cells in well | 187 | inactive
Ssxb1 (SSX member B1) | 1 | – | fewer than 50 cells per well; well left out of calls | 51.9 | inactive
Vtcn1 (V-set domain containing T cell activation inhibitor 1) | 1 | -1.02 | enough cells in well | 151 | inactive
C1qtnf5 (C1q and tumor necrosis factor related protein 5) | 1 | 0.54 | enough cells in well | 127 | inactive
Spag1 (sperm associated antigen 1) | 1 | -1.43 | enough cells in well | 176 | active
Siglecl2 (Siglec family like 2) | 1 | – | fewer than 50 cells per well; well left out of calls | 76.1 | inactive
Neu3 (neuraminidase 3) | 1 | 0.48 | enough cells in well | 248 | inactive
Galnt6 (polypeptide N-acetylgalactosaminyltransferase 6) | 1 | -1.54 | enough cells in well | 113 | active
Eif4a3 (eukaryotic translation initiation factor 4A3) | 1 | – | fewer than 50 cells per well; well left out of calls | 354 | inactive
Ptgs2 (prostaglandin-endoperoxide synthase 2) | 1 | -0.99 | enough cells in well | 141 | inactive
Mcf2 (mcf.2 transforming sequence) | 1 | -0.06 | enough cells in well | 223 | inactive
